Measurements published in patent US6573362.
Results are given in words; binding and its absence hold for the method and conditions named. Some binding calls cover weakened binding; strength is not graded here.

Protein sequences, listed by entry. Tags and fused reporters are not part of them. Lines headed by an entry give the natural chain unless they say otherwise; changes in a name come on top.
UniProt P0A7C2: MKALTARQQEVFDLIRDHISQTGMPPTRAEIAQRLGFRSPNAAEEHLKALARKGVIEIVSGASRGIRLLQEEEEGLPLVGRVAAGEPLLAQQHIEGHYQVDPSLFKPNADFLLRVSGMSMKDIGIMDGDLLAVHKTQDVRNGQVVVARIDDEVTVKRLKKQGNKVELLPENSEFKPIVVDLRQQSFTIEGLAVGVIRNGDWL
UniProt Q2KI41: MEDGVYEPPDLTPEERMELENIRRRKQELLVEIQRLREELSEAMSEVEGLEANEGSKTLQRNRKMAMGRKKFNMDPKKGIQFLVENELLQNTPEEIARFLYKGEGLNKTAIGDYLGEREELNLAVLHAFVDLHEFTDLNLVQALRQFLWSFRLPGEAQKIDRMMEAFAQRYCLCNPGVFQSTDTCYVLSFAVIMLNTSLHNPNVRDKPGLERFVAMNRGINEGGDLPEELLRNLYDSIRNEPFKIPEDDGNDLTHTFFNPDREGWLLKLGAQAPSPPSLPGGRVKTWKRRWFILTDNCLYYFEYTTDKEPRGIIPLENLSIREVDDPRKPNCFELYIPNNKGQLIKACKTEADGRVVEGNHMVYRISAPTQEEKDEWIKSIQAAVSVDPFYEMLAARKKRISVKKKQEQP

Legend:
[1] = biological target: lex-CD18cyt (LexA fusion of the cytoplasmic domain of CD18, the beta2 integrin subunit; construct lex 202-cd18) (UniProt P0A7C2); assay: yeast two-hybrid, X-GAL colour (blue indicates an interaction)
[2] = biological target: lex-CD18cyt (LexA fusion of the cytoplasmic domain of CD18, the beta2 integrin subunit; construct lex 202-cd18) (UniProt P0A7C2); assay: yeast two-hybrid, X-GAL colour
[3] = biological target: lex-CD18cyt (LexA fusion of the cytoplasmic domain of CD18, the beta2 integrin subunit; construct lex 202-cd18) (UniProt P0A7C2); assay: yeast two-hybrid library screen with the lex202-cd18 bait, X-GAL indicator plates

binding [1]: binds | binding [2]: binds | binding [3]: binds
Substance: product of cDNA cts18.1 (cytohesin-2) expressed from pJG4-5 (from UniProt Q2KI41 133-410)
